Some of the results follow.

Protein sequences, listed by entry. Tags and fused reporters are not part of them. Lines headed by an entry give the natural chain unless they say otherwise; changes in a name come on top.
UniProt Q9H6X4: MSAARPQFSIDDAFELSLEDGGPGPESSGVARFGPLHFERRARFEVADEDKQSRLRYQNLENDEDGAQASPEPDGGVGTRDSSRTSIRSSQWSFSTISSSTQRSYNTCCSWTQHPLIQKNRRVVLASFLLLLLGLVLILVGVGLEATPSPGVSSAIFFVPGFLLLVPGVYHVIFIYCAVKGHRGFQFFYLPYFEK
UniProt Q5SWH9: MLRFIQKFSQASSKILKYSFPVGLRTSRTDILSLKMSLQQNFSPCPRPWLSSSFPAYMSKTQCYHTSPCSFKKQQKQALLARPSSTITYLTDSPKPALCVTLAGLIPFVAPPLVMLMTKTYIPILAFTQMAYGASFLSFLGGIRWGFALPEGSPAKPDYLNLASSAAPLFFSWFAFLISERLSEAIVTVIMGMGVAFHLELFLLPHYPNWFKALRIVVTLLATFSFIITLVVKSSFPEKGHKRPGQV
UniProt Q53S58: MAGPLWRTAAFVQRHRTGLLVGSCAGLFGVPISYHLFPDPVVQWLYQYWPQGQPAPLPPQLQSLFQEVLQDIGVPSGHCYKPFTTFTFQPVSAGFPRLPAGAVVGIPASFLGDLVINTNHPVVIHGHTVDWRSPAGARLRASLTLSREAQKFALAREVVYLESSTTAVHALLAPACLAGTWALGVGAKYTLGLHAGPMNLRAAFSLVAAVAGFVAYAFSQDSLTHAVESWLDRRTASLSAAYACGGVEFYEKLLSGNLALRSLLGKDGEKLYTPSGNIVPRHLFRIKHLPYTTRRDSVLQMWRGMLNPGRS
UniProt Q9BVK8: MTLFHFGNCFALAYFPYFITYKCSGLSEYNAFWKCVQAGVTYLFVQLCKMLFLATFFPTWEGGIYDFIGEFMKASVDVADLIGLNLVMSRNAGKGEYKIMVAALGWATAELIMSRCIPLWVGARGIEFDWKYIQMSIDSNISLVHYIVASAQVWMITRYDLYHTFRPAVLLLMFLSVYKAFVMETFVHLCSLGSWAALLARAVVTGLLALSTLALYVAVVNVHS
UniProt Q9NR96: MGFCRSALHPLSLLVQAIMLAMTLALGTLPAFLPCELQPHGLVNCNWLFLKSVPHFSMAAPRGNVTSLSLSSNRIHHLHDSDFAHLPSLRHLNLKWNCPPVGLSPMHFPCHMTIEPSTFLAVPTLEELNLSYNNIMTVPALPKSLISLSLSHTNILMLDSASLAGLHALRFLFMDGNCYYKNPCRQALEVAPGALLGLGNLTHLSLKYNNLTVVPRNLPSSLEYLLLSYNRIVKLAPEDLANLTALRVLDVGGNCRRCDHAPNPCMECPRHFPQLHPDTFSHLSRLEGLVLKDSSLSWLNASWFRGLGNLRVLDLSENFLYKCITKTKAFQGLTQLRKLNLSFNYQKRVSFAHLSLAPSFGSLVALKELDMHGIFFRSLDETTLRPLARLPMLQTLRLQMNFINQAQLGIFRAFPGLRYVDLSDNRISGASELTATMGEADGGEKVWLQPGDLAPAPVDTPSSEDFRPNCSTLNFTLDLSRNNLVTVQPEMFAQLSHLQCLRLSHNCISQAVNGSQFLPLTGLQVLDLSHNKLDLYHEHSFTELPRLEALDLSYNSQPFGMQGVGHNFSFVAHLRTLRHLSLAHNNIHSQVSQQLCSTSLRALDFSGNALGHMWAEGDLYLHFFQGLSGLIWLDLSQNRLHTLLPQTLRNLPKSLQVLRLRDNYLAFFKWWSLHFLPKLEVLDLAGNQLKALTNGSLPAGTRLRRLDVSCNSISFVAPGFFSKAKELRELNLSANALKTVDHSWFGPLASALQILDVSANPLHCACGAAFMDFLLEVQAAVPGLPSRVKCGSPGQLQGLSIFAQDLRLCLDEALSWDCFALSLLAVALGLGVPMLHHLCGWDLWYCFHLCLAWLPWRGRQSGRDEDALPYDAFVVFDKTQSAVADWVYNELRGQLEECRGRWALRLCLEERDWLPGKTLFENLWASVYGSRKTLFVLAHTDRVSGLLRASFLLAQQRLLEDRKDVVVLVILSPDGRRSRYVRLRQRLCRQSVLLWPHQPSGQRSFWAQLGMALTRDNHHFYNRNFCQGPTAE
UniProt A0PJW6: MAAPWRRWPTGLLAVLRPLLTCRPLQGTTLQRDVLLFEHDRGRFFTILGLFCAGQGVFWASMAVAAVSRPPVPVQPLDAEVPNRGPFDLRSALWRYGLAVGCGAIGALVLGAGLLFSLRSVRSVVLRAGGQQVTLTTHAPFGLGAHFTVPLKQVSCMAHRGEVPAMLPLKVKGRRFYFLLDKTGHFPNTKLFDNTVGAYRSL
UniProt Q9NWH2: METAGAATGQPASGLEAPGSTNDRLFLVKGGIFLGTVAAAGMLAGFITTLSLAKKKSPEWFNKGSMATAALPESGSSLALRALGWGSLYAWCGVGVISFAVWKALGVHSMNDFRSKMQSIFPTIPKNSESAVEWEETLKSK
UniProt O00220, whole entry, looked up: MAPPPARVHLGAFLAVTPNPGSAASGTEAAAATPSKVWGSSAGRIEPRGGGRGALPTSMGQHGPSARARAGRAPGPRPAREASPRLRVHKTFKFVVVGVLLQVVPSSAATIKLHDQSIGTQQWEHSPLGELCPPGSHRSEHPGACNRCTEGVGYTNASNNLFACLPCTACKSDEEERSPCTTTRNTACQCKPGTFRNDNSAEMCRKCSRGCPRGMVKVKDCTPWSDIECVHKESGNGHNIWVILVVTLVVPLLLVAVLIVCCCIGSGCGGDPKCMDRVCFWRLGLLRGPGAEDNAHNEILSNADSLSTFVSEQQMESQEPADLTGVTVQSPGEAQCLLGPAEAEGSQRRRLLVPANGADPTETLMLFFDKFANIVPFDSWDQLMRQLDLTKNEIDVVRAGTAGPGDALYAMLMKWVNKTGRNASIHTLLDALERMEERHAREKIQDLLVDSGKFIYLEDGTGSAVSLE
UniProt Q96K49: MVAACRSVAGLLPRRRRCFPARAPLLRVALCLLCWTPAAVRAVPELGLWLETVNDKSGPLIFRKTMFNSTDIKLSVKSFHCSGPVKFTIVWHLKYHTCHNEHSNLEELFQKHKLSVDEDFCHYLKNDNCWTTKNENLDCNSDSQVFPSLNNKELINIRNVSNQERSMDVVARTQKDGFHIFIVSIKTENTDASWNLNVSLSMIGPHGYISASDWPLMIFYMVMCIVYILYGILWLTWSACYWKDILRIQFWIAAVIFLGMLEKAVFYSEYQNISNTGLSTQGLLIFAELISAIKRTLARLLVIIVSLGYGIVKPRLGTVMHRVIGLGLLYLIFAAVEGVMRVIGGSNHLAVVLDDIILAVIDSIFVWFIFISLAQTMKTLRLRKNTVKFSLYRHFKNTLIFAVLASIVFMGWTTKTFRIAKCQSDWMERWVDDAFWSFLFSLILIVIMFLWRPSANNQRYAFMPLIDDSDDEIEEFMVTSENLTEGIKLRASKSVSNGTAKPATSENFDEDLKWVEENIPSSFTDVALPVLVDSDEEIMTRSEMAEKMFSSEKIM
UniProt Q8NDZ6: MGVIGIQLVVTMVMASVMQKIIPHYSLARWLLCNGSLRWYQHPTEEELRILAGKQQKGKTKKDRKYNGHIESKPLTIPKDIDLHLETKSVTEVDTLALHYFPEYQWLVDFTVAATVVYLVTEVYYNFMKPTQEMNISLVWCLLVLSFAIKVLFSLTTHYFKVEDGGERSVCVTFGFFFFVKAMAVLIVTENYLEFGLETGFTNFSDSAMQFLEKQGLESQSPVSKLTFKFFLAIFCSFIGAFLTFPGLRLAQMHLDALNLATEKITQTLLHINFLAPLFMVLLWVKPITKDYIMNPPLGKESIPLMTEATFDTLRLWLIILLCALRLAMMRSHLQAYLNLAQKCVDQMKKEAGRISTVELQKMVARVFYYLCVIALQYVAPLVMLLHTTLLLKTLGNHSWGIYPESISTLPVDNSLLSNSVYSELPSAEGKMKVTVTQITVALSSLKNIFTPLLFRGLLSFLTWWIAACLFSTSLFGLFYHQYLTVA
UniProt Q9P0S9: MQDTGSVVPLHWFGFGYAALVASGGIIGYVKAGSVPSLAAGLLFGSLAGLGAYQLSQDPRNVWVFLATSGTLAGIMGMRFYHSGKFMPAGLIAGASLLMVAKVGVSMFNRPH
UniProt Q9NS93: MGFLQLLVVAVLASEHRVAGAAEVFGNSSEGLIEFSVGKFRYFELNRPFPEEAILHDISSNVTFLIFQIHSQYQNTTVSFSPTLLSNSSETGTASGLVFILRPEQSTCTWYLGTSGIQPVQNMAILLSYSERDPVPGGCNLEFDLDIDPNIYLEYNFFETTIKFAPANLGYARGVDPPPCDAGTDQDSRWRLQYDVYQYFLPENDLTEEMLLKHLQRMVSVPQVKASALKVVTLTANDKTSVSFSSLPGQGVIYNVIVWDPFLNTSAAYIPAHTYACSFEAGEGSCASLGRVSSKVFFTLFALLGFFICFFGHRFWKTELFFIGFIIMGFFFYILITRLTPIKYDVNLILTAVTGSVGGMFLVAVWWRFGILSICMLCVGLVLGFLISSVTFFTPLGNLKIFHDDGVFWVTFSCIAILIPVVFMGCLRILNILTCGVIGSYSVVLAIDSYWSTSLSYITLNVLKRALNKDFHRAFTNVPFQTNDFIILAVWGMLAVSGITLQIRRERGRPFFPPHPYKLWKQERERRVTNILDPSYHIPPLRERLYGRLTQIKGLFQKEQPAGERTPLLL
UniProt Q8IY95: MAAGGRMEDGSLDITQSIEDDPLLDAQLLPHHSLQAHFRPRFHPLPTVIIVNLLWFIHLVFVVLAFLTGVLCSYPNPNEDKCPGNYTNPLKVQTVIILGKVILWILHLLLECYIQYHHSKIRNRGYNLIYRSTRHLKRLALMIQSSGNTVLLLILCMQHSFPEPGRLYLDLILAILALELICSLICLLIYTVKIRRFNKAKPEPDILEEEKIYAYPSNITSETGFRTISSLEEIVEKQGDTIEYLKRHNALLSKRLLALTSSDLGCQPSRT
UniProt Q96HV5: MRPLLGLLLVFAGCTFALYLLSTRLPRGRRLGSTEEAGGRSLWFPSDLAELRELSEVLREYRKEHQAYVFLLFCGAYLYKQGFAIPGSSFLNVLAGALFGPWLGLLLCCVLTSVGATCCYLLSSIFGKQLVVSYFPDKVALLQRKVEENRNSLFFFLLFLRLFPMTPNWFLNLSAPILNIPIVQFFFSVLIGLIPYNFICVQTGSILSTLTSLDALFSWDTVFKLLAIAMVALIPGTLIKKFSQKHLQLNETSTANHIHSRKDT
UniProt Q969X1: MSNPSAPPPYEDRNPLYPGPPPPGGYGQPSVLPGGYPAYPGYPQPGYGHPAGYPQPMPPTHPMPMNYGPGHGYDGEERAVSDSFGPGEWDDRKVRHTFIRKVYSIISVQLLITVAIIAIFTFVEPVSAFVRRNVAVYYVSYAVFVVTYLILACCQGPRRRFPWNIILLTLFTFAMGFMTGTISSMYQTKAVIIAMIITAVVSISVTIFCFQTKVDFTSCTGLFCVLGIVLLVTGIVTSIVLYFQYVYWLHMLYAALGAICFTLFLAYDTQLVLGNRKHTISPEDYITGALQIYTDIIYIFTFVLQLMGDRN
UniProt Q9P2C4: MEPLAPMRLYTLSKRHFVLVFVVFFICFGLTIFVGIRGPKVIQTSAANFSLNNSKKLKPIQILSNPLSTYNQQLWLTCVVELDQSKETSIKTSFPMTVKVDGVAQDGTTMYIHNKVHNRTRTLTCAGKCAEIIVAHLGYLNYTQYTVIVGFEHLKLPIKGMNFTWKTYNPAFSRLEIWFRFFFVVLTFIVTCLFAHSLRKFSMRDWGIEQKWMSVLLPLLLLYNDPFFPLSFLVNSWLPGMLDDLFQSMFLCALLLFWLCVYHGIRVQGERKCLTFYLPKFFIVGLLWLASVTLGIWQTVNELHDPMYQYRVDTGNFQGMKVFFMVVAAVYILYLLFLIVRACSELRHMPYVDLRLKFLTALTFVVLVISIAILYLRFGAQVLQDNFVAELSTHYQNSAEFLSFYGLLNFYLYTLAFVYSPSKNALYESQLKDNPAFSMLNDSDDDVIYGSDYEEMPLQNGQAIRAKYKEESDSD
UniProt Q9P0T7: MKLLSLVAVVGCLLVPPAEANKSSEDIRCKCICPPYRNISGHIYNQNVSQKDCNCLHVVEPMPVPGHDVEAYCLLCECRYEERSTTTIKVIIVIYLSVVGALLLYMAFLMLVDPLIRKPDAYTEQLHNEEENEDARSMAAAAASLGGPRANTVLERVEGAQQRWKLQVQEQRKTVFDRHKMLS
UniProt Q96IK0: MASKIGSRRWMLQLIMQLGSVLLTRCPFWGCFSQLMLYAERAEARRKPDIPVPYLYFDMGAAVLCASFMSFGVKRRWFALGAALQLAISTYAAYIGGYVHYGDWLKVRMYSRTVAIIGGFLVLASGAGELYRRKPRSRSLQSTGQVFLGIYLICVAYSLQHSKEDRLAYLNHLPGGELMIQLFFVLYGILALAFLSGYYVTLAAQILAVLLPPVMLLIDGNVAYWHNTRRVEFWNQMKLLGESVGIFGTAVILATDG
UniProt Q9BVT8: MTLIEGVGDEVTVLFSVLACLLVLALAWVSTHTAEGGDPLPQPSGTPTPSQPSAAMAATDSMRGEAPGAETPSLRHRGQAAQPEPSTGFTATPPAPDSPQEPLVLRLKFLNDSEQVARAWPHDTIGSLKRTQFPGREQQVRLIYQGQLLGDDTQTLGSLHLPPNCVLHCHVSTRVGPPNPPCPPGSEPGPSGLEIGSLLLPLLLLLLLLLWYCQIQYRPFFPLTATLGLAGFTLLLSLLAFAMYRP

This passage reports log2 fold change results from the supplement of paper PMC10849652.

Compound in one test: C1=CC2=NC=CN=C2C=C1/C=C/3\C(=O)NC(=O)S3
Kind of test: log2 fold change, soluble protein after heating vs DMSO (PISA); higher = thermal stabilisation; K562 cells, 10 uM, 30 min; active = over 0.2 and 3.5 SD of the protein, either way, in both replicates (recomputed). The essentials: (§1)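 Soluble protein was quantified by TMTpro 16plex LC-MS/MS after channel sums were equalised. It was obtained as the supernatant after 21,000xg for 90 min from pooled aliquots of K562 cells (2×10^6 cells/mL, 10 μM compound, 30 min) heated for 3 min across 48°C-58°C and extracted in PBS with 0.5% NP-40 at 4°C. Thermal stability values are relative to control samples and come from duplicates. They are given as log2 fold changes.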
Consider TMEM134 (UniProt Q9H6X4), for which the log2 fold change is inactive: -0.203.
On the same count and under the same terms, under TMEM69 (UniProt Q5SWH9) stands inactive: 0.02; under TMEM177 (UniProt Q53S58), inactive: -0.015; under TMEM141 (UniProt Q96I45), inactive: 0.018.
Regarding TMEM63A (UniProt O94886), the log2 fold change was inactive: -0.011.
Still for that read-out and setting: for TMEM147 (UniProt Q9BVK8) the value was inactive: 0.115; for TMC1 (UniProt Q8TDI8), inactive: 0.115; for TLR9 isoform 4 (UniProt Q9NR96), inactive: 0.056.
On the same count and under the same terms, under TMEM223 (UniProt A0PJW6) stands inactive: 0.013; under TMEM242 (UniProt Q9NWH2), inactive: 0.077.
The same measure, in the same setting: for TNFRSF10A (UniProt O00220) the value was inactive: -0.012; for TMEM9B (UniProt Q9NQ34), inactive: -0.013.
TMEM268 isoform 3 (UniProt Q5VZI3): the log2 fold change is inactive: -0.138.
Still for that read-out and setting: under TMEM87B (UniProt Q96K49) stands inactive: 0.055; under TMEM161B (UniProt Q8NDZ6), inactive: 0.018.
The same measure, in the same setting: under TMEM14C (UniProt Q9P0S9) stands inactive: 0.013.
Same read-out and setting: under TNFAIP3 (UniProt P21580) stands inactive: -0.101; under TNFRSF10B (UniProt O14763), inactive: 0.071.
As to TM7SF3 (UniProt Q9NS93), the log2 fold change is inactive: 0.034.
For the target TMEM192 (UniProt Q8IY95), the log2 fold change is inactive: 0.067.
Regarding TMEM41A (UniProt Q96HV5), the log2 fold change was inactive: 0.037.
In the case of TMEM123 (UniProt Q8N131), the log2 fold change is inactive: 0.005.
On the same count and under the same terms, under TMBIM1 (UniProt Q969X1) stands inactive: -0.025; under TMEM219 (UniProt Q86XT9), inactive: 0.015; under TMEM164 (UniProt Q5U3C3), inactive: 0.078.
Consider TLK2 isoform 2 (UniProt Q86UE8), for which the log2 fold change is inactive: -0.016.
TMED8 (UniProt Q6PL24): the log2 fold change is inactive: 0.053.
On to TMEM267 (UniProt Q0VDI3), for which the log2 fold change is inactive: 0.067.
Turning to TMEM181 (UniProt Q9P2C4), the log2 fold change was inactive: 0.016.
On the same count and under the same terms, under TMEM106B (UniProt Q9NUM4) stands inactive: -0.002; under TMEM9 (UniProt Q9P0T7), inactive: -0.117; under TMED3 (UniProt Q9Y3Q3), inactive: -0.049.
On the same count and under the same terms, under TMEM189-UBE2V1 (UniProt I3L0A0) stands inactive: -0.047.
The same measure, in the same setting: under TMEM101 (UniProt Q96IK0) stands inactive: 0.018.
Consider TMUB1 (UniProt Q9BVT8), for which the log2 fold change was inactive: 0.096.

Compound in the next test: C1=CC=C(C=C1)C2=NC(=C(N2)C3=CC=NC=C3)C4=CC(=C(C=C4)Cl)O
The description is as above. A digest of the protocol: as §1
Consider TMEM134 (UniProt Q9H6X4), for which the log2 fold change was inactive: -0.226.
On the same count and under the same terms, under TMEM69 (UniProt Q5SWH9) stands inactive: 0.076; under TMEM177 (UniProt Q53S58), inactive: -0.034.
On the same count and under the same terms, under TMEM120B (UniProt A0PK00) stands inactive: 0.047; under TMEM147 (UniProt Q9BVK8), inactive: -0.07.
With TLR9 isoform 4 (UniProt Q9NR96), the log2 fold change was inactive: 0.009.
On to TMEM223 (UniProt A0PJW6), for which the log2 fold change was inactive: -0.007.
On the same count and under the same terms, under TMEM242 (UniProt Q9NWH2) stands inactive: -0.039.
With TNFRSF10A (UniProt O00220), the log2 fold change was inactive: -0.026.
On the same count and under the same terms, under TMEM9B (UniProt Q9NQ34) stands inactive: -0.016; under TMEM268 isoform 3 (UniProt Q5VZI3), inactive: 0.118.
On to TMEM87B (UniProt Q96K49), for which the log2 fold change is inactive: 0.009.
The same measure, in the same setting: for TMEM161B (UniProt Q8NDZ6) the value was inactive: 0.159.
With TMEM14C (UniProt Q9P0S9), the log2 fold change was inactive: 0.123.
On the same count and under the same terms, for TM6SF1 (UniProt Q9BZW5) the value was inactive: -0.013.
On the same count and under the same terms, for TMEM104 (UniProt Q8NE00) the value was inactive: 0.013.
Still for that read-out and setting: under TNFAIP3 (UniProt P21580) stands inactive: -0.113; under TM7SF3 (UniProt Q9NS93), inactive: 0.02.
With TMC6 (UniProt Q7Z403), the log2 fold change is inactive: 0.037.
In the case of TMEM192 (UniProt Q8IY95), the log2 fold change is inactive: 0.011.
For TMEM41A (UniProt Q96HV5), the log2 fold change was inactive: -0.04.
As for TMBIM1 (UniProt Q969X1), the log2 fold change is active: 0.517.
Same read-out and setting: for TLK2 isoform 2 (UniProt Q86UE8) the value was inactive: 0.064; for TMED8 (UniProt Q6PL24), inactive: 0.181; for TMEM267 (UniProt Q0VDI3), inactive: 0.093.
Take TMEM181 (UniProt Q9P2C4): the log2 fold change is inactive: -0.053.
Same read-out and setting: under TMEM9 (UniProt Q9P0T7) stands inactive: 0.037.
On the same count and under the same terms, under TMEM189-UBE2V1 (UniProt I3L0A0) stands inactive: 0.028; under TMEM101 (UniProt Q96IK0), inactive: -0.045.
Still for that read-out and setting: for TMUB1 (UniProt Q9BVT8) the value was inactive: -0.059.

Compound in the next test: C1=CC=C2C(=C1)C3=NNC4=CC=CC(=C43)C2=O
The description is as above. A digest of the protocol:
as §1
Turning to TMEM134 (UniProt Q9H6X4), the log2 fold change is inactive: -0.108.
Regarding TMEM69 (UniProt Q5SWH9), the log2 fold change is inactive: 0.169.
Still for that read-out and setting: for TMEM177 (UniProt Q53S58) the value was inactive: 0.01.
Same read-out and setting: for TMEM141 (UniProt Q96I45) the value was inactive: -0.018; for TMEM63A (UniProt O94886), inactive: 0.045; for TMEM120B (UniProt A0PK00), inactive: 0.061.
Take TMEM147 (UniProt Q9BVK8): the log2 fold change was inactive: 0.008.
Still for that read-out and setting: for TMC1 (UniProt Q8TDI8) the value was inactive: -0.058; for TLR9 isoform 4 (UniProt Q9NR96), inactive: -0.057; for TMEM223 (UniProt A0PJW6), inactive: 0.01.
The same measure, in the same setting: under TMEM242 (UniProt Q9NWH2) stands inactive: -0.115; under TNFRSF10A (UniProt O00220), inactive: 0.018; under TMEM9B (UniProt Q9NQ34), inactive: -0.016.
For the target TMEM268 isoform 3 (UniProt Q5VZI3), the log2 fold change is inactive: -0.21.
On to TMEM87B (UniProt Q96K49), for which the log2 fold change is inactive: -0.143.
For TMEM161B (UniProt Q8NDZ6), the log2 fold change is inactive: -0.026.
Still for that read-out and setting: under TMEM14C (UniProt Q9P0S9) stands inactive: 0.052; under TM6SF1 (UniProt Q9BZW5), inactive: -0.149; under TMEM104 (UniProt Q8NE00), inactive: -0.015.
Take TNFAIP3 (UniProt P21580): the log2 fold change was inactive: 0.004.
On the same count and under the same terms, for TNFRSF10B (UniProt O14763) the value was inactive: 0.031.
On to TM7SF3 (UniProt Q9NS93), for which the log2 fold change is inactive: 0.061.
The same measure, in the same setting: under TMC6 (UniProt Q7Z403) stands inactive: -0.088; under TMEM192 (UniProt Q8IY95), inactive: -0.017.
In the case of TMEM41A (UniProt Q96HV5), the log2 fold change was inactive: 0.013.
As to TMEM123 (UniProt Q8N131), the log2 fold change is inactive: -0.12.
With TMBIM1 (UniProt Q969X1), the log2 fold change is inactive: -0.069.
The same measure, in the same setting: for TMEM219 (UniProt Q86XT9) the value was inactive: 0.006.
On to TMEM164 (UniProt Q5U3C3), for which the log2 fold change is inactive: 0.017.
Regarding TLK2 isoform 2 (UniProt Q86UE8), the log2 fold change is inactive: 0.
Take TMED8 (UniProt Q6PL24): the log2 fold change was inactive: 0.094.
The same measure, in the same setting: under TMEM267 (UniProt Q0VDI3) stands inactive: -0.04; under TMEM181 (UniProt Q9P2C4), inactive: -0.048; under TMEM106B (UniProt Q9NUM4), inactive: 0.003.
Same read-out and setting: for TMEM9 (UniProt Q9P0T7) the value was inactive: -0.004; for TMED3 (UniProt Q9Y3Q3), inactive: 0.005.
The same measure, in the same setting: for TMEM189-UBE2V1 (UniProt I3L0A0) the value was inactive: -0.009.
For TMEM101 (UniProt Q96IK0), the log2 fold change was inactive: -0.012.
Same read-out and setting: under TMUB1 (UniProt Q9BVT8) stands inactive: 0.059.
